Source: the supplement of paper PMC3334620
In all, about 33,000 sequences were measured (“E-score (-0.5 to 0.5)”: median about -0.0059, highest 2% from about 0.26 on). The list shows a part of the results.

Target: T1, Cin5 (UniProt P40917)
T1 sequence: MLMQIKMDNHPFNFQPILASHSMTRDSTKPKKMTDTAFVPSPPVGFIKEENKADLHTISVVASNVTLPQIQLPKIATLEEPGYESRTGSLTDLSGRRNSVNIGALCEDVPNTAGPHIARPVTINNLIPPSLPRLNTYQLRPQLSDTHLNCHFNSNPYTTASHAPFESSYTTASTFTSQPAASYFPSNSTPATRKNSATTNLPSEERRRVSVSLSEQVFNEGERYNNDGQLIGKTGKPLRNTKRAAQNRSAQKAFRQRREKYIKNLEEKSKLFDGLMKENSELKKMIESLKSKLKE
Assay: PBM E-score (8-mer binding enrichment) (E-score (-0.5 to 0.5)); higher = stronger / more preferred TF binding
Conditions: protein concentration: 100 nM; construct: GST-full length
Method in brief: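 The E-score, a modified Wilcoxon-Mann-Whitney statistic, was computed by the Universal PBM Analysis Suite for every ungapped eight-base word pooled with its reverse complement. Scans behind it were normalised with masliner after bound GST-tagged yeast transcription factors were detected with fluorescent anti-GST. The proteins, at about 100-200 nM, had been applied to universal all-10-mer Agilent arrays made double-stranded by primer extension.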

Row | Sequence | PBM E-score
1 | CTAGAGTC | -0.356
2 | AGAGACTC | -0.0094
3 | CGAGTGCG | 0.0908
4 | AACGCATA | 0.0552
5 | CTGTGTTC | 0.129
6 | CGCAATAG | 0.0664
7 | CGATGGCA | -0.0471
8 | ACCGACGG | -0.0139
9 | CAATACCC | 0.148
10 | TCCGAAGA | 0.00859
11 | AACAGTGA | -0.0463
12 | GTACAGTA | 0.0783
13 | CCCCCGCA | -0.351
14 | AGTCACAG | -0.0359
15 | TTACGCAA | 0.306
16 | CAGAAAGG | -0.0597
17 | GTGATAAA | -0.0525
18 | GCGTCCAA | -0.177
19 | TAGCACAA | -0.0429
20 | TGGCGAAA | -0.0645
21 | CTTCAATA | 0.0873
22 | CAGGGAAG | -0.121
23 | CGGAGAAC | -0.0623
24 | TACGCTCA | 0.107
25 | GAATTTGA | 0.0437

Part of the list above, with tabs.
Row	Sequence	PBM E-score
8	ACCGACGG	-0.0139
9	CAATACCC	0.148
10	TCCGAAGA	0.00859
11	AACAGTGA	-0.0463
12	GTACAGTA	0.0783

Next entries.

Row | Sequence | PBM E-score
26 | GAGAATCC | 0.0215
27 | TAAGACTA | 0.117
28 | CTTAATAC | 0.191
29 | ACCTCTCC | -0.244
30 | CGTCTCAG | -0.138
31 | AAAGATCG | 0.0677
32 | AACTCGAG | 0.173
33 | GAAGGGAA | -0.167
34 | CGAGCGTA | -0.0619
35 | CATAGCTC | -0.197
36 | ACAGTGGA | 0.0429
37 | CAGATTAC | 0.246
38 | ACGATGTA | 0.107
39 | CAGGGTCC | -0.275
40 | CGATGATA | -0.0237
41 | CCCAATAC | -0.00655
42 | ACCATAAA | 0.0774
43 | GGAGTGTA | -0.177
44 | ATTTACCC | 0.104
45 | GAGTGTCA | 0.114
46 | AGAGTGCA | -0.0185
47 | TAGACGAA | -0.0114
48 | AAGAACCC | 0.00964
49 | AGGAACGG | 0.00402
50 | CATAACAG | 0.0983

Row | Sequence | PBM E-score
51 | CTTAAAGA | -0.141
52 | CCCAAGCG | 0.0138
53 | AACTTGTA | 0.0012
54 | GCCCACCA | -0.0969
55 | ATTAACAC | 0.271
56 | CTTTGGTA | -0.205
57 | TGTTACAA | 0.146
58 | GTACTCGA | 0.0237
59 | GAGATCTA | -0.00668
60 | CATATGAA | 0.196
61 | GTCCACGA | -0.185
62 | AGCTAATC | 0.208
63 | TAGCCAGA | -0.00108
64 | GGAGCTAC | -0.236
65 | ACGCTCGC | -0.0869
66 | AGAGTCTG | -0.29
67 | AATTGTAA | 0.0199
68 | AGCCCAGC | -0.0958
69 | ACAGGGAA | -0.146
70 | AAGCTACA | 0.00755
71 | CATCACGC | -0.0568
72 | ATGCTTAA | 0.146
73 | AAGATTAA | 0.18
74 | GAAACCTA | -0.126
75 | GACCCTTA | -0.183

Row | Sequence | PBM E-score
76 | CATTCCTC | 0.036
77 | AAATGCGT | 0.0849
78 | AGCGGCCC | -0.315
79 | TCATGTAA | 0.146
80 | GAGTCTGA | -0.153
81 | CATAGACA | -0.0153
82 | ATTTGTAC | 0.075
83 | CAAGCCTG | -0.105
84 | GCGTTCAC | -0.125
85 | ATGTTGCC | 0.0134
86 | ACTACAGT | 0.144
87 | ATAGAGGG | -0.0564
88 | ACTTCTCC | -0.1
89 | ATACCTAT | 0.176
90 | AATGCAAG | 0.00342
91 | CGTCTCAC | -0.0428
92 | CGAGAGAC | -0.0934
93 | CAATCCGC | 0.0427
94 | ACTAAGAT | 0.2
95 | TGGTAAAA | 0.0376
96 | GCGAGTGA | 0.0362
97 | AACATCAA | 0.205
98 | CGTAGGTC | -0.357
99 | AATCACGC | 0.0577
100 | ATTGGGCG | -0.0699

From entry 7 to 8, as listed above:
Row | Sequence | PBM E-score
7 | CGATGGCA | -0.0471
8 | ACCGACGG | -0.0139

More records.

Row | Sequence | PBM E-score
101 | CTATTTAC | 0.0754
102 | ATATATTG | 0.088
103 | GAGCTGAA | 0.0459
104 | TATTGCGA | 0.153
105 | CTGGTATA | -0.0583
106 | TCCCGCCA | -0.00516
107 | GGCTTATA | 0.0974
108 | ACCGAGTA | 0.035
109 | CACCCAGG | -0.237
110 | CCACGGAG | 0.0418
111 | AAGCTAAG | -0.164
112 | TCCAAGAA | -0.0669
113 | TTCTCAAA | 0.15
114 | CCAGTTTC | 0.0406
115 | GGTCGTCA | -0.132
116 | AACTACCA | 0.135
117 | CACCACGG | -0.325
118 | AAGCTTAA | 0.164
119 | GCTCTGCA | -0.237
120 | CTAAACCC | -0.0573
121 | ATTTTGGG | -0.0752
122 | CAAACTTA | 0.16
123 | CACATACA | 9e-05
124 | CTAGATCC | -0.0524
125 | CCTAAACC | -0.0859

Row | Sequence | PBM E-score
126 | GCCTGTGA | -0.169
127 | GTCGTCAC | -0.0939
128 | ACGGTGAA | 0.0271
129 | ATTATTAG | 0.0574
130 | GGTCTCAA | -0.227
131 | CGACACAG | 0.023
132 | AGCATGCT | -0.145
133 | CCCAACAA | 0.0801
134 | GTTGTTCA | -0.0621
135 | TAGTACTA | 0.132
136 | ACCGCCGG | -0.113
137 | GAATTAAA | 0.0854
138 | CTACGTTA | 0.0121
139 | ATTAGGTC | 0.271
140 | AGCACTTA | 0.00228
141 | CCGCGTTA | 0.0622
142 | ATCCAGTG | 0.131
143 | CTCCTGGA | -0.225
144 | GCGCTCGA | -0.059
145 | TAATTCTA | 0.0873
146 | ACGTCGGG | -0.093
147 | GCCGGACA | -0.0923
148 | GATTAGGA | 0.0316
149 | CTCAGGAA | -0.108
150 | AGTTTAAG | -0.115

Row | Sequence | PBM E-score
151 | TTAAGCAA | 0.0545
152 | CTGAGACA | -0.0351
153 | AGGAACCT | 0.0492
154 | ATGTTATA | 0.0953
155 | ATAGGCAA | 0.157
156 | ACTCGCTC | 0.0206
157 | GACTGTGA | 0.0649
158 | AGCCCATA | 0.146
159 | GGCCGCCA | -0.203
160 | CCATCTCC | 0.0491
161 | AGCTCTTA | 0.051
162 | CTAGATGC | 0.0126
163 | AGGATTCC | -0.174
164 | CGACTCGA | -0.142
165 | CGTCGGAA | 0.0776
166 | AAATGAAA | 0.266
167 | AGGCTTAA | -0.00411
168 | CTCCGAAA | -0.077
169 | CGCAAAGC | -0.0641
170 | ACGAGGGA | -0.0525
171 | GAGATGGA | -0.0265
172 | CAAGAACA | -0.0469
